The test system of this test is MIWI (PIWIL1) piRISC loaded with piRNA #1 (30 nt). As to the kind of experiment: pre-steady-state target cleavage rate (min^-1); MIWI and MILI are mouse PIWI proteins and EfPiwi is from a freshwater sponge; tags in brackets are library labels; higher = faster piRNA-guided slicing of the target. The conditions noted are these: guide: piRNA #1 5'p-UGAGGUAGUAGGUUGUAUAGUAUCCAGAGG; auxiliary factor: 500 nM mouse GTSF1. In a few lines:
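With or without 500 nM GTSF1 partner protein, 1 nM active affinity-purified piRISC carrying one synthetic guide was mixed with 0.1 nM transcribed, DNA-blocked target RNA library in HEPES–potassium acetate buffer at 33 °C for 0–8 or 0–960 min. Uncleaved targets were sequenced and normalised to depth and to weakly complementary targets, three trials were pooled, and k3 was capped at 0.0001 min^-1. The pre-steady-state cleavage rate came from a burst-and-steady-state fit.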

± gives the standard deviation. The entries are a selection whose mix differs from that of the whole data set. Many entries were measured with a wide error.

With GGACUGGAUACUAUACAACCUACGUACCUCA, the “pre-steady-state target cleavage rate” value is 0.656 ± 0.089. The same measure for CCUCUGGAUACGAUACAACCUACUACCUCA: 2.07 ± 0.11. The figure for GGAGACCUAUGAUAACAACCUACUAUCCUCA is 0.00205 ± 0.0046; for GGAGACCAUACUAUACAACCUACCUACCUCA it is 1.06 ± 0.066; for GCUCUGGAUACUAAACAACCUACAACCUCA it is 1.23 ± 0.089. The same measure for GGAGACCUAACUAUACACACCUACUACCUCA: 0.000187 ± 0.023; for GGAGACCUAUGAUAUCAACCACUACCUCA: 0.000285 ± 0.0085; for GGUCUGGAUACUAUACAACCUCUACCUCA: 0.00142 ± 0.0039. As for GGAGUCGGAUACUAUACAACCUACUACCUCA, the “pre-steady-state target cleavage rate” value was 1.45 ± 0.091. As for GGAGACCUAUGAAUUACAACCUACUACCUCA, the “pre-steady-state target cleavage rate” value was determined as 0.00112 ± 0.0041. As for CCUCUGGAUACUAUUCAACCUACAACCUCA, the “pre-steady-state target cleavage rate” value stood at 1.62 ± 0.13. For GGACUGGAUACUAUACAACCUACUUCCUGA, the “pre-steady-state target cleavage rate” value was 0.000265 ± 0.014. As to GCUCUGGAUACUAUACAACCUACAUGCUCA, the “pre-steady-state target cleavage rate” value is 0.589 ± 0.072. Regarding GCUCUGCAUACUAUACAACCUACUACGUCA, the “pre-steady-state target cleavage rate” value came out at 1.24 ± 0.086. As to GGUCAGGAUACUAUACAUCCUACUACCUCA, the “pre-steady-state target cleavage rate” value is 1.54 ± 0.079.

GCUCUCGAUACUAAACAACCUACUACCUCA: the “pre-steady-state target cleavage rate” value was determined as 1.81 ± 0.12. The same measure for “GCUCUGGAUACUAUACAACCUAGAUGGAGA [g9:g29:cont:t1A]”: 0.00269 ± 0.003. Take GGACUGGAUACUAUACAACCUAGUUCCUCA: the “pre-steady-state target cleavage rate” value worked out at 0.000729 ± 0.0058. On to GGACUGGAUACUAUACAACCUACAACCUGA, for which the “pre-steady-state target cleavage rate” value stood at 0.00162 ± 0.0048. For GGAGUGCAUACUAUACAACCUACUACGUCA, the “pre-steady-state target cleavage rate” value came to 0.629 ± 0.053. Regarding GGUCUGGAUACUAUACAACCUACUUCCUGA, the “pre-steady-state target cleavage rate” value came to 0.000393 ± 0.0093. Take GCUCUGCGAUACUAUACAACCUACUACCUCA: the “pre-steady-state target cleavage rate” value was 2.02 ± 0.12. For the sequence GGAGACCUAUGAUAACAACCUACUACCUACA, the “pre-steady-state target cleavage rate” value was 0.000617 ± 0.0053.

CCUCUGGAAACUAUUCAACCUACUACCUCA: the “pre-steady-state target cleavage rate” value was found to be 2.02 ± 0.13. In the case of GCUCUCGAUACUAUACAACCUACAACCUCA, the “pre-steady-state target cleavage rate” value came out at 1.01 ± 0.078. Take GGAGACCUAUGAUUACAACCUACAUCCUCA: the “pre-steady-state target cleavage rate” value is 0.00173 ± 0.0033. Regarding GCUCUGGAUACUAUACACACCUACUACCUCA, the “pre-steady-state target cleavage rate” value came to 0.00453 ± 0.0047. As for GGAGACCUAUCUAUACAACCAUCUACCUCA, the “pre-steady-state target cleavage rate” value came out at 0.00254 ± 0.0044. As to GGAGUGGAUACUUUACAACCUACUACCUCA, the “pre-steady-state target cleavage rate” value came out at 1.53 ± 0.086. The same measure for CCUCUGGAUACUAAACUACCUACUACCUCA: 1.24 ± 0.098; for GGUCAGCAUACUAUACAACCUACUACCUCA: 1.81 ± 0.096; for GGAGACCUAUGAUAUGUUCGUUCUACCUCA: 0.000208 ± 0.019. The same measure for GGAGACCUAUGAUAUGUACCUGACUACCUCA: 0.000195 ± 0.012; for GGACUGGAUACUAUACUAACCUACUACCUCA: 0.000131 ± 0.034. The figure for GGAGACCAUACUAAACAACCUACUUCCUCA is 0.195 ± 0.024.

On to GGACUGGAUACUAUACAAGCCUACUACCUCA, for which the “pre-steady-state target cleavage rate” value is 0.000441 ± 0.018. Regarding GGAGACCUAUGAAUACAACCUACUACGCUCA, the “pre-steady-state target cleavage rate” value came out at 0.00203 ± 0.0036. With GGACUGGAUACUAUACAAGGAACUACCUCA, the “pre-steady-state target cleavage rate” value turned out to be 0.00253 ± 0.0037. The figure for GCUCUCGAUACUAUACAACCUUCUACCUCA is 0.639 ± 0.034. Take GCUCUGGUUACUAUUCAACCUACUACCUCA: the “pre-steady-state target cleavage rate” value stood at 1.88 ± 0.12. The same measure for GGAGACCUAUGAUUACAACCUACUGACCUCA: 0.00135 ± 0.0045.
